Test results: patent publication US20030166056A1, “Transmembrane protein as a downstream target of neurotrophin and ephrin receptor tyrosine kinases, DNA encoding same and monoclonal antibodies thereto” (New York University, priority 2000, published 2003)
Results are given in words; binding and its absence hold for the method and conditions named. Some binding calls cover weakened binding; strength is not graded here.

The chains behind the UniProt entries cited, without tags or fusion partners. Where a name states a change or a piece, a line headed by the entry shows the natural chain unless it says otherwise.
UniProt P0A7C2: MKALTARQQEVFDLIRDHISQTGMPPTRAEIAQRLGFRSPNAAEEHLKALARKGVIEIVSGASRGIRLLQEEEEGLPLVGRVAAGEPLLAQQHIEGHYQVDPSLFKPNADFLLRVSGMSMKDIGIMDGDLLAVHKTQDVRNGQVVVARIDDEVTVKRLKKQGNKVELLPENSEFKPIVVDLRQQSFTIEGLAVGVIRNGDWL
UniProt P07174: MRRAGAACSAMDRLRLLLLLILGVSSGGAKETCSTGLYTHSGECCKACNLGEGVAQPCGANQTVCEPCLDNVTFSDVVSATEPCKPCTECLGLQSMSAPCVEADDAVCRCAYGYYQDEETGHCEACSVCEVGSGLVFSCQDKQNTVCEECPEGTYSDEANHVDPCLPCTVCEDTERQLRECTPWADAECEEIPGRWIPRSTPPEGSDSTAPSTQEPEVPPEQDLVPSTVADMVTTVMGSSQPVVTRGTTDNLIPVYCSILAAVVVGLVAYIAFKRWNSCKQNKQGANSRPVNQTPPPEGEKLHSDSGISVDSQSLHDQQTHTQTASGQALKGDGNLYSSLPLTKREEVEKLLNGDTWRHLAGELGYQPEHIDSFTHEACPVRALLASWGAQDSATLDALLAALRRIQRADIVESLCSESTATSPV

Tests used:
[1] = target: T1, entire cytoplasmic region of rat p75 fused to the LexA DNA binding domain (two-hybrid bait) (rat) (UniProt P0A7C2+P07174); experiment: yeast two-hybrid
[2] = target: T1, entire cytoplasmic region of rat p75 fused to the LexA DNA binding domain (two-hybrid bait) (rat); experiment: yeast two-hybrid screen (LexA system), survival in the absence of leucine

binding [1]: binds
B1: carboxy terminal 250 amino acids of ARMS (two-hybrid library clone) (protein, not shown: large carriers)
chain: DEDESGTGRVQITPHCSKMIRTKRLKAKQRECASPQEHSAEPIRTFIKAKEYLSDALLDKKDSSDSGVRSNESSPNHSLHNEAADDSQLEKANLIELEDEGHSGKRGMPHSLSGLQDPIIARMSICSEDKKSPSECSLIASSPEESWPACQKAYNLNRTPSTVTLNNNTAPTNRANQNFDEIEGIRETSQVILRPGPSPNPTAVQNENLKSMAHKRSQRSSYTRLSKDASELHAASSESTGFGEERESIL
binding [2]: binds
